Reference: paper PMC7819943, “Rice protein-binding microarrays: a tool to detect cis-acting elements near promoter regions in rice”
The list shows a part of the results.

Protein sequences, listed by entry. Tags and fused reporters are not part of them.
UniProt Q0JBA9, entry or part of it: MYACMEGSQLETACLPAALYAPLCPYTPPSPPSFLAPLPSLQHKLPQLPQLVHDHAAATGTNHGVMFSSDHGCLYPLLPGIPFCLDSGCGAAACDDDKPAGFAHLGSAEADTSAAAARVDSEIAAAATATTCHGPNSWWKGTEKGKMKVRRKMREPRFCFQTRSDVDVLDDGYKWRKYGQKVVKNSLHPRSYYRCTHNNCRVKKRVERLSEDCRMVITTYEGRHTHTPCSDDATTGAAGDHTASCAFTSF

molecular target: OsWRKY34 (Oryza sativa, UniProt Q0JBA9 1-250); test: protein-binding microarray (RPBM); PBS, 2% BSA, 51.3 ng/ul salmon testes DNA, 50 uM zinc acetate, 200 nM TF, 25 C, 1 h; high values mean tight binding; conditions: protein: recombinant; tags: N-terminal polyhistidine and DsRed monomer fusion (pET32a); label: CyDye5-dUTP incorporated in the synthesized complementary strand; 3' TTTTT single-stranded linker to array surface; dsDNA, one strand shown
Method in brief: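 Using Ni–NTA, transcription factors fused N-terminally to polyhistidine and DsRed were purified after expression in E. coli BL21-CodonPlus. These were incubated at 200 nM with a blocked, double-stranded custom Agilent array for 1 h at 25 °C in a buffer containing 50 µM zinc acetate, and the array was washed. The binding signal is per-feature fluorescence intensity (arbitrary units) on an Axon 4000B scanner.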

First: TTTCTACGGGTTGTGGGCTAGGGTTTCGATCGGTTTGGAGCGGAGTCACCTAGTGCAG
Second: ACGCACCCCGTTCCTAACGCTACCTTGTTTTGCCTATGTACGGAGTCACCTAGTGCAG
The binding signal of the first is higher: 11900 fluorescence intensity (a.u.) for the first, 9230 fluorescence intensity (a.u.) for the second.

Compared with “ACGCTGTTGATTTTTTTAAACATGTTTGACCGTTCGTCTTCGGAGTCACCTAGTGCAG”, “CTCGTTCTGCACTACTACTCGGCCACCATTTCCTTTCCTTCGGAGTCACCTAGTGCAG” is lower in binding signal: 13200 fluorescence intensity (a.u.) for the first, 12900 fluorescence intensity (a.u.) for the second.

Going from “GTTAGCCCAGCCAGCGATTTCACCATCTCATCTCATCTCACGGAGTCACCTAGTGCAG” to “TGCCTGTGTCTGTGTGTGTGTTCTACTCCTACCATGAGAGCGGAGTCACCTAGTGCAG”, the binding signal falls from 9860 fluorescence intensity (a.u.) to 8690 fluorescence intensity (a.u.).

Compared with “TTCACCCTCACTTTATTCATCTATAGTAGTTTCATCAGTTCGGAGTCACCTAGTGCAG”, “TTCGGGCCCAGGTCGTCCCATGCACCATAACCGTTTGCTCCGGAGTCACCTAGTGCAG” is higher in binding signal: 8060 fluorescence intensity (a.u.) for the first, 10500 fluorescence intensity (a.u.) for the second.

First: TTTAAAAAATTTTGTGTGGTTGTGTGGTGTACTGTAGTAGCGGAGTCACCTAGTGCAG
Second: GATATTGGAGGTGCATCTGTTAGGGTTCGGGTTCTCTCTACGGAGTCACCTAGTGCAG
The binding signal of the first is lower: 8280 fluorescence intensity (a.u.) for the first, 16700 fluorescence intensity (a.u.) for the second.

First: ATATGCCCATTGTTTGTTTGTTTATCCGTCGTAATCTCTCCGGAGTCACCTAGTGCAG
Second: ATTGTTTGTTCTTCAGCTACTGTTTCAAGTTTACACGTACCGGAGTCACCTAGTGCAG
The binding signal of the first is lower: 9570 fluorescence intensity (a.u.) for the first, 12300 fluorescence intensity (a.u.) for the second.

Compared with “AGATTTGTGTGTGTGGTTGCTGTTGCTGTGTGTGAATGGACGGAGTCACCTAGTGCAG”, “CACACACACTGCACTTCGGCTCACTCTCTCCACTGTTCTTCGGAGTCACCTAGTGCAG” is higher in binding signal: 10200 fluorescence intensity (a.u.) for the first, 16700 fluorescence intensity (a.u.) for the second.

First: AGGGTTACGTGTGGGAGGAGGGAGGTGGATGTGGAAAGATCGGAGTCACCTAGTGCAG
Second: GTGTCTTGTACATGTCTTCGTTTCTTCCTTTCTCATTTCACGGAGTCACCTAGTGCAG
The binding signal of the first is lower: 8460 fluorescence intensity (a.u.) for the first, 10900 fluorescence intensity (a.u.) for the second.

First: GAGCCTCGTCCCTATCCCACATCACCTTGCTCGATCGCCTCGGAGTCACCTAGTGCAG
Second: GTCATAGCCTCACCGTCCATCATCTTCTTCATCTTCACCCCGGAGTCACCTAGTGCAG
The binding signal of the first is lower: 10600 fluorescence intensity (a.u.) for the first, 12000 fluorescence intensity (a.u.) for the second.

Compared with “CATTGGAGCGCTGTCTCCTGCTGCTGCACAGTCTACTCTCCGGAGTCACCTAGTGCAG”, “CTACTACTCTGTTCTTCTGGAAGAACACTGGTCTCCTCGCCGGAGTCACCTAGTGCAG” is lower in binding signal: 8850 fluorescence intensity (a.u.) for the first, 8380 fluorescence intensity (a.u.) for the second.

First: CGCTTGATCTGGGGTGGGGTCGCGAGTGGTGGAGGAGGTGCGGAGTCACCTAGTGCAG
Second: CCTCCGCTTCGTCCTGTCCTCCCACCTCGCCGCGCCTGACCGGAGTCACCTAGTGCAG
The binding signal of the first is higher: 16600 fluorescence intensity (a.u.) for the first, 9980 fluorescence intensity (a.u.) for the second.

Compared with “CACACCATATTTGCCTATTCTTTTCCTTTACTTCTGAACTCGGAGTCACCTAGTGCAG”, “CAAGGTGGTACTAAACATGCGCACACCGCTTTCATGGGCCCGGAGTCACCTAGTGCAG” is higher in binding signal: 8080 fluorescence intensity (a.u.) for the first, 8180 fluorescence intensity (a.u.) for the second.

First: ACTTGAAAGTACGCCACATTTTCGCGCTGCCCTTAACTTACGGAGTCACCTAGTGCAG
Second: GTATTTTGCAATCCTCTGTTTTACACTTATATTTCTATCACGGAGTCACCTAGTGCAG
The binding signal of the first is higher: 10700 fluorescence intensity (a.u.) for the first, 8030 fluorescence intensity (a.u.) for the second.

First: GATGGTGTGTGTGTGTGGCTGTGTGCACCTAAGAATTTCTCGGAGTCACCTAGTGCAG
Second: CCCGGCGTCCTCCTGCTTCCCACCGCATCGTCGCTCGCCGCGGAGTCACCTAGTGCAG
The binding signal of the first is higher: 10400 fluorescence intensity (a.u.) for the first, 8120 fluorescence intensity (a.u.) for the second.

First: TCGCCGCTATAAGTATCCCGCTGCTCGTCGCAAAGTCAACCGGAGTCACCTAGTGCAG
Second: TAATTTAGCGGGGTCATTAGGGTGTAGTCAAATCAAGCCACGGAGTCACCTAGTGCAG
The binding signal of the first is higher: 9280 fluorescence intensity (a.u.) for the first, 8890 fluorescence intensity (a.u.) for the second.

First: CAAATTGTCTACGGTGTGTTCTTTGTTATGCTCTCTTCGTCGGAGTCACCTAGTGCAG
Second: TTTTGAGACTAGTTTTCACTGACATGGCACGTTGACTTGGCGGAGTCACCTAGTGCAG
The binding signal of the first is higher: 10600 fluorescence intensity (a.u.) for the first, 10500 fluorescence intensity (a.u.) for the second.

Going from “CGAAAGGTCAAACGTTGGTTAAAAAGTCAACGGCGTTATACGGAGTCACCTAGTGCAG” to “GTCGTGTCTCCCCATCTTCACTTGTTTTCTCGCCAAATCCCGGAGTCACCTAGTGCAG”, the binding signal falls from 11500 fluorescence intensity (a.u.) to 8270 fluorescence intensity (a.u.).

First: ACTTTTGTTGATTATAACTCACACTCACACTATATTTTCACGGAGTCACCTAGTGCAG
Second: CCGTCGGAGGATTCCTGTCCCTGCCCACGCCGCCGCCTTCCGGAGTCACCTAGTGCAG
The binding signal of the first is higher: 11100 fluorescence intensity (a.u.) for the first, 9130 fluorescence intensity (a.u.) for the second.

Going from “CCCTTCCTGACGACCTACCTGCCGATCGCCACTACAATCTCGGAGTCACCTAGTGCAG” to “CTGATGTCTGAACGACTGTACCCGACGTTGTTGATTGCTTCGGAGTCACCTAGTGCAG”, the binding signal falls from 10100 fluorescence intensity (a.u.) to 9820 fluorescence intensity (a.u.).

Compared with “TCTAGGGTTGTAATCTTGTAATTTTTTTCTGCTCTATCAACGGAGTCACCTAGTGCAG”, “ACTAATTGCACTGCTCCCACACCTTAATCGATCTTAATTACGGAGTCACCTAGTGCAG” is higher in binding signal: 9190 fluorescence intensity (a.u.) for the first, 9300 fluorescence intensity (a.u.) for the second.

First: GGTTGAGGGTGTGGGAGCTCCTCTCATTTTGTTTATGAATCGGAGTCACCTAGTGCAG
Second: CGTCAGCTCCGGCTACCGTGGTCAATGTGCACAATATTTCCGGAGTCACCTAGTGCAG
The binding signal of the first is higher: 10100 fluorescence intensity (a.u.) for the first, 9920 fluorescence intensity (a.u.) for the second.
